For one data set, the system named is HFD-induced NAFLD mice. The data set can be described thus: HFD-induced NAFLD mouse model, WZS08 by gavage for 100 days. It counts as in vivo. The conditions noted are these: for Tibial length: mean ± SEM. On the procedure: The KM mice were randomly divided into six groups, including a regular chow (Group C), HFD (Group M) as a model control group, HFD supplemented with various doses of WZS08, 1 (Group M + W1), 2 (Group M + W2), and 4 (Group + W4) mg/kg, 20 mice per group. Mice were housed five animals per cage. Mice were maintained at a constant temperature (25 ± 3°C) for a 12-h light-dark cycle with free access to food and water. After a week of diet adaptation, the mice were fed with WZS08 dissolved in 1% sodium carboxymethyl cellulose (CMC-Na) or 1% CMC-Na for 100 days alone. Each mouse was gavaged daily with 0.5 ml vehicle (1% CMC-Na) or drug in 1%CMC-Na. By the end of the treatment, the mice were killed by CO2, and the weights of body, liver, epididymal fat, mesenteric fat, and dorsal fat were measured. […]
Quantitative Real-Time Polymerase Chain Reaction
Total RNA was isolated from mouse liver using Trizol kit according to the manufacturer’s instruction. To reduce genomic DNA contamination, total RNAs were treated with ribonuclease-free deoxyribonuclease I (Thermo Fisher Scientific, Waltham, MA, United States) for 1 h at 37°C. 1 μg RNA was used to synthesize the first strand cDNA by reverse transcription kit. qPCR was carried out using SYBR GREEN as an indicator using Bio-Rad real time PCR system. The standard curve method was adopted as previously described ([Lv et al., 2019]). The Ct values were recorded after a series of diluted standards of mouse liver cDNAs, and the linear equation of Ct values vs. logarithm [dilution of standards] was generated, and the concentration of the target mRNA was calculated according to their Ct value. The result was normalized to Gapdh (encoding GAPDH) and Rps16 as the internal controls. The mRNA levels of Acs2 (encoding acetyl-CoA synthetase2), Hsd11b1 (encoding 11β–HSD1), Ldlr (encoding LDLR), Plin2 (encoding PLIN2), and Plin3 (encoding PLIN3) were evaluated. There were no changes in Gapdh and Rps16 mRNA levels between groups and the test mRNA levels were adjusted to Gapdh. Primer information is listed in Supplementary Table S1.
Measurement of Serum Insulin and Corticosterone Levels and Blood Lipid Levels
On the last day of the experiment, the mice were fasted for 6 h (with free access to drinking water), and then blood and tissues were sampled. Blood samples were collected. The blood sample was centrifuged at 5000 rpm for 10 min to collect the serum, and the serum was frozen at -40°C until use. According to standard clinical protocols, the levels of serum glucose, low-density lipoprotein (LDL), high-density lipoprotein (HDL), total cholesterol, and triglyceride (TG) were measured using Hitachi 7600 biochemical analyzer (Hitachi, Japan). In addition, serum insulin and corticosterone levels were evaluated using the ultrasensitive mouse insulin ELISA kit (CrystalChem, IL, USA) and the commercially available corticosterone ELISA kit (Abnova, Taiwan, China) according to the manufacturers’ instructions.
Protein Expression Analysis
Total hepatic protein extract was obtained as previously described ([Lazaro et al., 2013]). The protein was separated by SDS–PAGE and transferred to a 0.2 μm PVDF membrane. The primary antibodies used were: 11β-HSD1 (rabbit polyclonal antibody, Abcam, catalog # ab39364; being blocked with 11β-HSD1 peptide, #ab101097, San Francisco, CA), ACS2 (Abcam, catalog # ab229958, San Francisco, CA, United States), and β-actin (ACTB, Cell signaling, Danvers, MA, United States). Goat anti-rabbit HRP was used as a secondary antibody. Finally, chemiluminescence emitted by the immunoreactive protein was detected by an ECL advance agent, and visualized with a MicroChemi Imaging system and qualified by a densitometry using AlphaEaseFC (ProteinSample, CA, United States). Relative protein levels were normalized by ACTB.
Before hematoxylin and eosin (HE) staining, the livers of KM mice were fixed in 10% formalin, dehydrated, and embedded in paraffin, as previously described ([Andres-Manzano et al., 2015]). […]

For a further data set, the system named is KM mice on regular chow. Kind of data set: Regular chow mice given WZS08 for 100 days. The data set is classed as in vivo, mouse. The conditions noted are these: regular chow plus 2 mg/kg WZS08 (C + W2), mean ± SEM. On the procedure: The KM mice were randomly divided into six groups, including a regular chow (Group C), HFD (Group M) as a model control group, HFD supplemented with various doses of WZS08, 1 (Group M + W1), 2 (Group M + W2), and 4 (Group + W4) mg/kg, 20 mice per group. Mice were housed five animals per cage. Mice were maintained at a constant temperature (25 ± 3°C) for a 12-h light-dark cycle with free access to food and water. After a week of diet adaptation, the mice were fed with WZS08 dissolved in 1% sodium carboxymethyl cellulose (CMC-Na) or 1% CMC-Na for 100 days alone. Each mouse was gavaged daily with 0.5 ml vehicle (1% CMC-Na) or drug in 1%CMC-Na. By the end of the treatment, the mice were killed by CO2, and the weights of body, liver, epididymal fat, mesenteric fat, and dorsal fat were measured.

Take `O=C1/C(=C/c2c(F)cccc2F)CC/C1=C\c1c(F)cccc1F` [WZS08, (2E,5E)-2,5-bis(2,6-difluorobenzylidene) Cyclopentanone]: the calorie intake entry with HFD-induced NAFLD mice (HFD mice, 45 days, vs Group M) is “did not affect”. In addition, the “weight of other tissues (back fat, visceral fat, epididymal fat, thymus)” value in the data set with HFD-induced NAFLD mice (HFD mice, 100 days) is listed as “not affected”. For the same compound, in the data set with HFD-induced NAFLD mice (HFD mice, serum, 100 days), the “systemic circulatory CORT level” value was “did not change”. Also, in the data set with HFD-induced NAFLD mice (HFD mice, vs Group M), the “total fecal lipid content” value is “did not affect”. For the same compound, the Tibial length in the data set with HFD-induced NAFLD mice (HFD plus 1 mg/kg WZS08 (M + W1), 100 days) was found to be 2.51 ± 0.053 cm. Moreover, the Tibial length with HFD-induced NAFLD mice (HFD plus 2 mg/kg WZS08 (M + W2), 100 days) worked out at 2.41 ± 0.056 cm. In the data set on HFD-induced NAFLD mice (HFD plus 4 mg/kg WZS08 (M + W4), 100 days), the Tibial length came to 2.45 ± 0.071 cm. In addition, in the data set on KM mice on regular chow, the Body weight is on record as 50.70 ± 0.92 g, the Dorsal adipose weight came to 0.49 ± 0.045 g, the Epididymal adipose weight was 1.30 ± 0.116 g and the Mesenteric adipose weight came out at 0.55 ± 0.044 g. In the data set with KM mice on regular chow, the Thymic adipose weight came to 0.07 ± 0.01 g, the Tibial length stood at 2.34 ± 0.046 cm and the Total hepatic weight is 2.03 ± 0.06 g.

(Values after article PMC8072159, “5-Bis-(2,6-difluoro-benzylidene) Cyclopentanone Acts as a Selective 11β-Hydroxysteroid Dehydrogenase one Inhibitor to Treat Diet-Induced Nonalcoholic Fatty Liver Disease in Mice” (Frontiers in Pharmacology, 2021).)
